Patent US11845773B2, “Trehalose analogues” (Central Michigan University, priority 2016, dated 2023)
Some entries share one result that the patent states for a list of compounds.

Test system: M. smegmatis mc2155 (Msmeg)
Assay: Metabolic labeling of Msmeg with AlkTMM probes, CuAAC with Az488, flow cytometry / microscopy
Assay type: cell-based, Mycobacterium smegmatis
Settings: time-dependence of labeling

| Structure (SMILES) | culture time at which labeling signal saturation occurred [h] |
| --- | --- |
| C#CCCCCC(=O)NCC1O[C@H](O[C@H]2OC(CO)[C@@H](O)C(O)[C@H]2O)C(O)[C@@H](O)[C@@H]1O (stereo partly drawn) [N-AlkTMM, N-(6-heptynoyl)-6-amino-6-deoxy-α,α-D-trehalose] | 2 to 4 |
| C#CCCCCC(=O)OCC1O[C@H](O[C@H]2OC(CO)[C@@H](O)C(O)[C@H]2O)C(O)[C@@H](O)[C@@H]1O (stereo partly drawn) [O-AlkTMM, 6-O-(6-heptynoyl)-α,α-D-trehalose] | 2 to 4 |
